Test results published in publication PMC8917853 (Iranian Journal of Basic Medical Sciences, 2021).

Assay: peptide synthesis
Settings: whole synthesis

For DOTA-(Lys-Dabcyl^6,Phe^7)-ARA-290, the “final HPLC purity” value was >97%.
